From patent publication US6646113
Results are given in words; binding and its absence hold for the method and conditions named. Binding seen in cells or lysates may run through a third protein. Some results given as binding are weak or reduced against the parent protein; the word gives no strength.

The chains behind the UniProt entries cited, without tags or fusion partners. Where a name states a change or a piece, a line headed by the entry shows the natural chain unless it says otherwise.
UniProt Q9UHI6: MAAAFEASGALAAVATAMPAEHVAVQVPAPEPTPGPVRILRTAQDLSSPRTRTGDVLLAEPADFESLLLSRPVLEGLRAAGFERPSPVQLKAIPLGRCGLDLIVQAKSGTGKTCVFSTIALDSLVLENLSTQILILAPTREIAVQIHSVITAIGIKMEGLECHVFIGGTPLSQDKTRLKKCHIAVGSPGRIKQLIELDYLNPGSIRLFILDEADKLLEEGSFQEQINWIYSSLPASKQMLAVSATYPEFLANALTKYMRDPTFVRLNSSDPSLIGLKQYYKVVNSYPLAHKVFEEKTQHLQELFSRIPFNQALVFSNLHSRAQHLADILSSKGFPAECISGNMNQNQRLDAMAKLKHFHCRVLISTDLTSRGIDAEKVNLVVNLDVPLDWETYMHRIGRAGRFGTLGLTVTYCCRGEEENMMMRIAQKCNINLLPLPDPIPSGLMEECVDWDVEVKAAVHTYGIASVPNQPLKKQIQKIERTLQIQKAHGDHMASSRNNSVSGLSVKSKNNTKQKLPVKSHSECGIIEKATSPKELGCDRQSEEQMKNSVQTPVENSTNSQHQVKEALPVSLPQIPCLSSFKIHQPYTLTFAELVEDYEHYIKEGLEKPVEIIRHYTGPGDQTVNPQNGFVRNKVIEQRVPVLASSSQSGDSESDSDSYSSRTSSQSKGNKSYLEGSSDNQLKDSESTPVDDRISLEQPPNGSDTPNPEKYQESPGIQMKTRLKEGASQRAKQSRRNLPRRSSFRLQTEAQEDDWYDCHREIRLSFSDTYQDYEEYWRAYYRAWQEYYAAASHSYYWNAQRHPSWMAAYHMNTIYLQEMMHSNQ
UniProt Q16637: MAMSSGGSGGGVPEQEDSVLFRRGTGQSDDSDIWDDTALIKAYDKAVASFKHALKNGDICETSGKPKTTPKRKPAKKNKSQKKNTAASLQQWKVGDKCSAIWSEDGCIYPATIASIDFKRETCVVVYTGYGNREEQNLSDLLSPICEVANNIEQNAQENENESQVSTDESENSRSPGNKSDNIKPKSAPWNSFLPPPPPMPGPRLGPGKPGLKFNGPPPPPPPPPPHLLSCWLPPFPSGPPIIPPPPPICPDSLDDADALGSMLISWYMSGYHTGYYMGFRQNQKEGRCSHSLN
UniProt O14893: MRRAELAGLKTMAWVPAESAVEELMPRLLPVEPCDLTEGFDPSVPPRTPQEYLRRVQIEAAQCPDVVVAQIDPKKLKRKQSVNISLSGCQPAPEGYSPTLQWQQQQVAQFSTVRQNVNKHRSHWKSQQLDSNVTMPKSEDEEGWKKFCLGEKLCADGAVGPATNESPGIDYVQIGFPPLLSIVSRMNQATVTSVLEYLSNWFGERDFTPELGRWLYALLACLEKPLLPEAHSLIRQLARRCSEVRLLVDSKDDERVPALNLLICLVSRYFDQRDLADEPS
UniProt P62318: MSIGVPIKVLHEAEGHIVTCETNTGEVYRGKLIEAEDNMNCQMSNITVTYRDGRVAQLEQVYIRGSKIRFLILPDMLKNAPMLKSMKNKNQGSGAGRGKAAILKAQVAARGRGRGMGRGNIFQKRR

Tests used:
[1] = biological target: GST-Gemin3 fusion protein (human) (UniProt Q9UHI6); experiment: GST pull-down of purified 6His protein
[2] = biological target: GST-Gemin3 fusion protein (human) (UniProt Q9UHI6); experiment: GST pull-down of purified 6His protein, Western blot
[3] = biological target: GST-Gemin3 fusion protein (human) (UniProt Q9UHI6); experiment: GST pull-down of purified 6His protein, Western blot with anti-His-tag
[4] = biological target: GST-SMN preincubated with His-SMN (SMN oligomer on beads) (human) (UniProt Q16637); experiment: GST pull-down after preincubation of GST-SMN with His6-tagged SMN (FIG. 43)
[5] = biological target: GST-SMN fusion protein (human) (UniProt Q16637); experiment: GST pull-down, 35S IVT protein, washes 200 mM to 1 M salt
[6] = biological target: GST-SMN fusion protein (human) (UniProt Q16637); experiment: GST pull-down, 35S IVT protein
[7] = biological target: GST-SMN preincubated with His-SMN (SMN oligomer on beads) (human) (UniProt Q16637); experiment: GST pull-down after preincubation of GST-SMN with His-SMN
[8] = biological target: GST-Gemin3 fusion protein (human) (UniProt Q9UHI6); experiment: GST pull-down, 35S IVT protein
[9] = biological target: GST-SMN preincubated with His-SMN (SMN oligomer on beads) (human) (UniProt Q16637); experiment: GST pull-down after preincubation of GST-SMN with 6His-tag SMN
[10] = biological target: GST-SMN fusion protein (human) (UniProt Q16637); experiment: GST pull-down without preincubation
[11] = biological target: GST-SMN preincubated with His-SMN (SMN oligomer on beads) (human) (UniProt Q16637); experiment: GST pull-down after preincubation of GST-SMN with 6His-SMN
[12] = biological target: GST-SMN fusion protein (human) (UniProt Q16637); experiment: GST pull-down, 35S IVT protein (FIG. 44)
[13] = biological target: GST-SMN fusion protein (human) (UniProt Q16637); experiment: GST pull-down, 35S IVT protein (FIGS. 44-45)
[14] = biological target: GST-SIP1 fusion protein (human) (UniProt O14893); experiment: GST pull-down, 35S IVT protein (FIG. 39)
[15] = biological target: GST-SIP1 fusion protein (human) (UniProt O14893); experiment: GST pull-down, 35S IVT protein

His-tagged SMN wild type, purified recombinant (from UniProt Q16637 1-294)
binding [1]: binds | binding [2]: binds | binding [3]: binds

SIP1 (human), in vitro translated and 35S-labeled (from UniProt O14893 1-280)
binding [4]: binds | binding [5]: binds | binding [6]: binds | binding [7]: binds

SMN (human), in vitro translated and 35S-labeled (from UniProt Q16637 1-294)
binding [4]: binds | binding [7]: binds

Sm D3 protein, in vitro translated and 35S-labeled (from UniProt P62318 1-126)
binding [8]: binds

myc-tagged Gemin3 wild type, in vitro translated (from UniProt Q9UHI6 1-824)
binding [9]: binds | binding [10]: binds | binding [6]: binds | binding [11]: binds

myc-tagged SIP1 wild type (from UniProt O14893 1-280)
binding [12]: binds

myc-tagged SIP1ΔN71 (from UniProt O14893 72-280)
binding [12]: binds | binding [13]: binds

myc-tagged SMN wild type (from UniProt Q16637 1-294)
binding [14]: binds | binding [15]: binds | binding [8]: binds

myc-tagged SMNY272C (from UniProt Q16637 1-294)
binding [15]: binds

myc-ΔN368C277Gemin3 (from UniProt Q9UHI6 369-547)
binding [6]: binds
